Data taken from PubChem BioAssay AID504467 (National Center for Advancing Translational Sciences (NCATS), 2011).
The whole screen tested about 330,000 compounds, of which about 7,700 (2.3%) were called active. The shares of active, inactive and inconclusive entries below differ from those in the screen. Calls follow the shape of the dose curve; as a rule, active = well fitted inhibition curve with a large enough effect; inconclusive = small, poorly fitted or top-dose-only effect, or effect the other way; inactive = flat fitted curve, though single readings scatter. Where the call is inconclusive, the potency comes from a doubtful curve fit.
Potency is read from the fitted curve at half-maximal effect.

Experiment: qHTS screen for small molecules that inhibit ELG1-dependent DNA repair in human embryonic kidney (HEK293T) cells expressing luciferase-tagged ELG1; also: nearly all actives have a fitted effect of over 55% in size
Conditions: HEK293T ELG1-luciferase reporter, luminescence, 16 h, DNA damage induced by 5-fluorouridine; series mostly up to 46.1 µM
Outline: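 Quantitative HTS, concentration-response format. 2,000 cells/well co-treated with 5-fluorouridine and compound, 16 hr in 5% CO2 at 37 °C; ONE-Glo luminescence read after 30 min.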
With CCOC(=O)c1[nH]c(C)c(CN(Cc2ccco2)C(=O)C(F)(F)F)c1C the Potency was inconclusive: 25.9 µM [inhibitor, single point].
For Cc1ccc(C(=O)Oc2coc(CSc3nnc(NC(=O)C4CC4)s3)cc2=O)cc1, the Potency was “inactive”.
For Cc1ccc2cc(CCNC(=O)c3ccc(S(=O)(=O)N4CCCCC4)cc3)c(=O)[nH]c2c1, the Potency was inconclusive: 18.3 µM [inhibitor, single point].
In the case of CCN(CC)S(=O)(=O)c1ccc(C(=O)NCCSc2c[nH]c3ccccc23)cc1, the Potency is reported as inconclusive: 23.1 µM [inhibitor, partial curve, poor fit].
With C=CCC[C@H](Cc1ccc(F)cc1)C(=O)OC[C@@H](NC(=O)[C@@H](CC=C)CC(=O)N[C@@H](CO)Cc1ccccc1)C(C)(C)C the Potency was inconclusive: 29.1 µM [inhibitor, single point].
For CN(CC(=O)Nc1ccc(Cl)c(C(F)(F)F)c1)C(=O)Cc1ccsc1, the Potency was inconclusive: 29.1 µM [inhibitor, single point].
With N#CCCN(Cc1cccnc1)C(=S)NCc1ccco1 the Potency was inconclusive: 0.651 µM [inhibitor, single point].
With CC(C)Oc1ccc(C(=O)OCC(=O)c2ccc[nH]2)cc1 the Potency was inconclusive: 18.3 µM [activator, partial curve].
For Clc1ccc(-c2nc(NCCCN3CCOCC3)c3ccccc3n2)cc1, the Potency was active: 23.1 µM.
For NCCNc1ccc([N+](=O)[O-])c(NC2CC2)c1, the Potency was inconclusive: 11.6 µM [inhibitor, partial curve, poor fit].
With CCCCn1c(=N)n(CC(O)COc2ccc(C)cc2)c2ccccc21 (stereo unspecified) the Potency was inconclusive: 18.4 µM [inhibitor, single point].
With Cc1noc(C)c1NC(=O)N(C)C[C@@H]1Oc2c(NC(=O)NC(C)C)cccc2C(=O)N([C@@H](C)CO)C[C@@H]1C the Potency was “inactive”.
With O=C(/C=C/c1ccc(-c2ccccc2[N+](=O)[O-])o1)c1ccccc1 the Potency was inconclusive: 20.6 µM [activator, partial curve, poor fit].
With O=C(N/N=C/c1ccc(O)c(O)c1)N/N=C/c1ccc(O)c(O)c1 the Potency was inconclusive: 9.2 µM [activator, partial curve].
For Nc1nnc(CC(=O)N/N=C/c2ccc(-c3ccccc3)o2)s1, the Potency was “inactive”.
For Cc1ccc2oc(C(=O)N(C)Cc3cnccn3)c(C)c2c1, the Potency was inconclusive: 23.1 µM [activator, single point].
In the case of COc1ccc(OC)c(/C=C/c2ccc3cccc(O)c3n2)c1, the Potency is reported as inconclusive: 20.6 µM [activator, single point].
With CN(C[C@H](Cc1ccccc1)N(C[C@H](Cc1ccccc1)N(CCc1cc(C(F)(F)F)cc(C(F)(F)F)c1)N=O)N=O)N=O the Potency was “inactive”.
For CCOc1[nH]n(-c2ccccc2)c(=O)c1C=NCC(=O)OC, the Potency was “inactive”.
With CCOC(=O)c1csc(NC(=O)c2ccc(S(=O)(=O)N(CC)CC)cc2)n1 the Potency was inconclusive: 3.66 µM [inhibitor, full curve].
With C/C=C/c1ccc(OCC(=O)NNC(=O)CN(C)S(=O)(=O)c2ccc(C)cc2)c(OC)c1 the Potency was inconclusive: 25.9 µM [inhibitor, single point].
In the case of CCc1[nH]c(=O)c(C#N)c2c1COC(C)(C)C2, the Potency is reported as inconclusive: 32.6 µM [activator, partial curve, poor fit].
With CCn1c(=O)[nH]c2ccccc2c1=O the Potency was inconclusive: 9.2 µM [activator, partial curve, poor fit].
For COc1cc(NC(=O)c2ccc(-c3cccc(F)c3)o2)ccc1NC(=O)c1ccccc1Cl, the Potency was inconclusive: 20.6 µM [inhibitor, partial curve].
For CC(C)Nc1ncnc2c1cnn2-c1ccc(Cl)cc1, the Potency was inconclusive: 0.291 µM [activator, full curve].
With CCCCn1nnc(NC(=O)c2ccco2)n1 the Potency was inconclusive: 18.4 µM [activator, single point].
In the case of COCCN1C(=O)C(O)=C(C(=O)c2ccco2)C1c1cccc(Oc2ccccc2)c1 (stereo unspecified), the Potency is reported as inconclusive: 23.1 µM [activator, partial curve, poor fit].
For CN(C)S(=O)(=O)c1ccc(C(=O)Nc2nc(-c3cccs3)cs2)cc1, the Potency was active: 11.6 µM.
With CN(C)S(=O)(=O)c1cc(NC(=O)COC(=O)CC2Sc3ccccc3NC2=O)ccc1Cl (stereo unspecified) the Potency was inconclusive: 23.1 µM [activator, partial curve, poor fit].
In the case of COc1ccc(Cn2c(=N)c(C(=O)NC3CCCCC3)cc3c(=O)n4ccccc4nc32)cc1, the Potency is reported as inconclusive: 18.3 µM [inhibitor, partial curve, poor fit].
With COc1ccc(OC(=O)c2c(C)nn(-c3ccccc3)c2C)cc1 the Potency was inconclusive: 11.6 µM [activator, partial curve].
For COc1ccc2[nH]c(=O)c(CN(CCc3ccccc3)Cc3nnnn3CC3CCCO3)cc2c1 (stereo unspecified), the Potency was inconclusive: 16.4 µM [inhibitor, partial curve, poor fit].
With CCOC(=O)c1cnc(SC2CC(=O)N(c3ccc(OC)c(OC)c3)C2=O)nc1N (stereo unspecified) the Potency was “inactive”.
In the case of O=C(CCCCCn1c(=S)[nH]c2ccc(N3CCOCC3)cc2c1=O)NCc1cccc(Cl)c1, the Potency is reported as inconclusive: 2.06 µM [inhibitor, partial curve, poor fit].
For COc1cc(N)c(Cl)cc1C(=O)N[C@H]1CCN(CCCOc2ccc(F)cc2)C[C@H]1OC, the Potency was inconclusive: 15.8 µM [inhibitor, partial curve, poor fit].
For COc1ccc2nc(Nc3ccccc3OC)sc2c1, the Potency was inconclusive: 2.06 µM [activator, full curve].
With CC(=O)N/C(=N\OCc1ccc(Br)cc1)c1nonc1NC(C)=O the Potency was inconclusive: 18.4 µM [activator, partial curve, poor fit].
For Oc1ccc(C=Nc2cccc3ccccc23)c(O)c1, the Potency was “inactive”.
With Cc1ccccc1C(=O)NNC(=O)CSc1nnc(-c2ccncc2)n1-c1ccccc1 the Potency was “inactive”.
With COc1ccc(NC(=O)C2CCCCN2CC(=O)OCc2ccccc2)cc1OC (stereo unspecified) the Potency was inconclusive: 14.1 µM [activator, partial curve, poor fit].
For CC(C)(C)c1csc(NC(=O)c2ccncc2)n1, the Potency was inconclusive: 8.2 µM [inhibitor, partial curve].
In the case of NNC(=O)c1cc2cc(OC(F)(F)F)ccc2[nH]1, the Potency is reported as inconclusive: 29.1 µM [inhibitor, single point].
For CC(C)(C)c1ccccc1NC(=S)NC1CCCC1, the Potency was “inactive”.
With COC(=O)C(C)Sc1nc2c([nH]c3ccccc32)c(=O)n1C (stereo unspecified) the Potency was “inactive”.
In the case of Cc1nn(C(C)C(=O)Nc2sc3c(c2C#N)CCCC3)c(C)c1[N+](=O)[O-] (stereo unspecified), the Potency is reported as inconclusive: 35.5 µM [inhibitor, single point].
In the case of COC(=O)c1nn(-c2ccccc2)c(Sc2ccc(C)cc2)c1/C=N/O, the Potency is reported as inconclusive: 23.1 µM [inhibitor, partial curve].
For CC(C)N1C(=S)N(Cc2ccco2)C(=O)C1CC(=O)Nc1ccccc1 (stereo unspecified), the Potency was inconclusive: 11.6 µM [inhibitor, partial curve, poor fit].
In the case of CCc1ccc(Nc2nnc(SC(C)C(=O)NC3CC3)s2)cc1 (stereo unspecified), the Potency is reported as inconclusive: 25.9 µM [inhibitor, single point].
In the case of O=C(COC(=O)c1ccccn1)Nc1nc(-c2cccc([N+](=O)[O-])c2)cs1, the Potency is reported as “inactive”.
With CCOC(=O)C/C(N)=N/NC(=O)c1ccc(Cl)cc1Cl the Potency was “inactive”.
For O=C(/C=C/c1ccc(F)cc1)Nc1cccc(S(=O)(=O)N2CCOCC2)c1, the Potency was inconclusive: 29.1 µM [inhibitor, single point].
In the case of COc1ccccc1[C@H]1C(c2ccc(F)cc2)=NN(c2ccccc2)[C@@H]1CO, the Potency is reported as “inactive”.
For Cc1ccc(-n2nc3cc(C)c(NC(=S)NC(=O)/C=C/c4ccco4)cc3n2)cc1, the Potency was inconclusive: 9.2 µM [activator, partial curve].
With O=C(CSc1nnc(NC(=O)c2ccccc2F)s1)NC1CCCC1 the Potency was inconclusive: 13 µM [activator, partial curve].
In the case of O=C(Nc1nc2c(s1)CN(Cc1ccccc1)CC2)C1CCC1, the Potency is reported as inconclusive: 18.3 µM [activator, partial curve].
For COc1nc(Cl)cn(-c2ccc(C)cc2)c1=O, the Potency was “inactive”.
For Cc1cc(/C=N/NC(=O)c2ccncc2)c(C)n1-c1cccc(C(F)(F)F)c1, the Potency was “inactive”.
In the case of C=CCSc1nnc(-c2cc3c(s2)-c2ccccc2CC3)o1, the Potency is reported as inconclusive: 20.6 µM [activator, partial curve].
For O=C(NCc1ccccc1)C1CC(=O)N(c2ccc(OCC(=O)N3CCCC3)cc2)C1 (stereo unspecified), the Potency was inconclusive: 20.6 µM [activator, single point].
With CC(C)(C)c1ccc(C(=O)c2c[nH]c(C(=O)NCc3cccnc3)c2)cc1 the Potency was “inactive”.
In the case of O=C(CSc1ccc(Br)cc1)N1CCN(S(=O)(=O)c2ccccc2)CC1, the Potency is reported as inconclusive: 18.3 µM [inhibitor, single point].
In the case of CC1(C)CC(NC(=O)C2CCN(S(=O)(=O)c3cccc(C(F)(F)F)c3)CC2)CC(C)(C)N1, the Potency is reported as inconclusive: 29.1 µM [activator, single point].
In the case of Cc1ccccc1-n1c(C)nc2ccccc21, the Potency is reported as “inactive”.
With CC(C)CCC(CCNCc1ccccn1)c1ccc(Cl)cc1 (stereo unspecified) the Potency was “inactive”.
With COc1ccc2cc(-c3ccon3)ccc2c1 the Potency was inconclusive: 20.6 µM [activator, partial curve].
With COc1ccc(C(CNC(=O)/C=C/c2c(Cl)nc3ccccn23)N(C)C)cc1 (stereo unspecified) the Potency was inconclusive: 29.1 µM [activator, partial curve, poor fit].
